Measurements from US5023254A, “Aminoalkylindoles, their production, and pharmaceutical preparations based thereon” (Schering Aktiengesellschaft, priority 1988, dated 1991).
Values joined by “and” are separate entries in the source; they are usually repeats but may differ in a detail not shown here. Equal entries are not always repeated. The name of at least one read-out is uncertain.

Test system: mouse uterus
Experiment: Uterotrophic test on infantile mouse (estrogen activity)
Type: in vivo
Design: unit not given here
Conditions: estrone 0.4 ug/animal
Description: This test is fully described in Cancer Treatment Reviews 1984, 11, 147, and J.Med.Chem., 1984, 27, 1439.

C[C@]12CC[C@@H]3c4ccc(O)cc4CC[C@H]3[C@@H]1CCC2=O [Estrone, reference compound]
Uterotrophic Test Action (rel. uterus wgt): 54.6 ± 6.5 and 64.7 ± 8.7 and 50.2 ± 3.1 and 50.8 ± 7.3 and 54.2 ± 12.1 and 51.2 ± 5.9
